PubChem BioAssay AID1259308 – NCATS, 2017
The deposit covers about 59,000 reagents; this is a part drawn at random. About 1,510 of them (2.6%) were called active. 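Calls use total luciferase alone and ignore viability, so some active siRNAs may act by altering cell number.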 Unmarked entries are inactive. Reagents against one gene are numbered here. Not all columns of the deposit are shown. Reagent sequences are not shown.

- Test: 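Candidate targets for better recombinant protein yield in mammalian cells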 (primary screen)
- Cells: human HEK293 embryonic kidney cells stably expressing firefly luciferase (HEK-CMV-Luc2-Hygro)
- Knock-down reagent: single siRNA against human genes, 0.8 pmol siRNA per well
- Time to read-out: 72 h
- Measurement: 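Reporter luminescence and viable-cell signal on separate replicate plates, given as percent of non-targeting control and median/MAD z-scores, plus per-cell luciferase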
- Scale: total luciferase, z-score and total luciferase, % of control: higher = more reporter protein produced; luciferase per cell, z-score: higher = more reporter output per viable cell
- Rule for the call: 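An siRNA counts as active if its total luciferase robust z-score exceeds 3; genes with two or more such siRNAs out of three were retested with fresh siRNAs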
- Calls: active = raised luciferase; inactive = no rise

no.	target	reagent	total luciferase, z-score	total luciferase, % of control	luciferase per cell, z-score
1	LINC01896	1	2.26	127	2.77
2	LINC01896	2	0.254	86.9	0.27
3	LINC01896	3	1.12	104	0.87
4	GPR32	1	0.328	88.4	-0.0968
5	GPR32	2	-0.489	72.2	-0.473
6	GPR32	3	1.17	105	0.492
7	KREMEN2	1	-0.598	70	-0.361
8	KREMEN2	2	0.133	84.5	0.508
9	KREMEN2	3	1.45	111	1.22

An excerpt from above, reduced to “total luciferase, z-score”.
LINC01896 #3	1.12
GPR32 #1	0.328

Continued:
no.	target	reagent	total luciferase, z-score	total luciferase, % of control	luciferase per cell, z-score
10	ERICH2	1	-0.415	73.6	-0.559
11	ERICH2	2	-0.683	68.3	-0.69
12	ERICH2	3	-0.805	65.9	-0.842
13	ERICH2	4	-0.496	72	0.959
14	ERICH2	5	0.695	95.7	2.25
15	ERICH2	6	1.51	112	1.44
16	STRADA	1	2.6	134	1.49
17	STRADA	2	-0.594	70.1	-0.729
18	STRADA	3	1.32	108	1.13
19	ERLIN1	1	0.196	85.8	-0.189
20	ERLIN1	2	0.09	83.7	0.115
21	ERLIN1	3	-0.524	71.5	-0.322
22	UBA5	1	-0.318	75.6	-0.66
23	UBA5	2	0.447	90.8	-0.022
24	UBA5	3	0.214	86.1	0.0479
